Assay results: PubChem BioAssay AID1794845 (National Center for Advancing Translational Sciences (NCATS), 2023)
Screen size: about 6,900 compounds; fewer than 10 were called active. Calls follow the shape of the dose curve; as a rule, active = well fitted curve in the direction sought with a large enough effect; inconclusive = small, poorly fitted or top-dose-only effect, or another doubt; inactive = no such curve, though single readings can be large or run the other way. This is one part of the list.

Protein sequences, listed by entry. Tags and fused reporters are not part of them. Lines headed by an entry give the natural chain unless they say otherwise; changes in a name come on top.
UniProt C7C422: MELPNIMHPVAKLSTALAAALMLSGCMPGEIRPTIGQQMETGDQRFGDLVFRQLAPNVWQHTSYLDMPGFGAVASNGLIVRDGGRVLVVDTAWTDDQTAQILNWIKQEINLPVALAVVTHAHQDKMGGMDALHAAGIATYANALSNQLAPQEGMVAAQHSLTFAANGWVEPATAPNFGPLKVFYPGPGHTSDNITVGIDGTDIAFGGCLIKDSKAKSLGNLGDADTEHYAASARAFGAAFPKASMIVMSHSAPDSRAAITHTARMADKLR

Biological target: Metallo-beta-lactamase type 2 (Klebsiella pneumoniae) (UniProt C7C422)
Test: qHTS to identify inhibitors of the New Delhi Metallo-beta-lactamase (NDM): primary screen against the NCATS Gemini Collection; also: % of control where 0% means no effect
Conditions: NDM-1 enzyme, meropenem hydrolysis, absorbance 300 nm; at 38.4 µM (top of the series) unless noted
In short: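 Meropenem hydrolysis (50 uM final) by 2 nM NDM-1 read as 300 nm absorbance after 30 min, following >30 min compound–enzyme preincubation in HEPES pH 7.0 with 1 uM ZnSO4 and 0.01% Tween20.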

| Structure (SMILES) | activity % (negative = inhibition) |
| --- | --- |
| CN(c1cc(=O)c2ccnc(-c3ccc(F)c(Cl)c3)c2o1)C1CCOCC1 | inactive: -2.65% [at 57.5 µM] |
| COc1ccccc1-c1cccc(C(=O)N2CCN([S+](=O)([O-])c3c(C)noc3C)CC2)c1 | inactive: 1.78% |
| Cn1nc2n(c1=O)CCN(C1CCSCC1)CC2 | inactive: 2.04% |
| Cn1cnnc1CC1CCNC1 (centres undefined) | inactive: -6.74% |
| CC(C)c1nnc(C2CN(C(=O)c3ccc4ccccc4n3)CC23CCOCC3)o1 (centres undefined) | inactive: 20.3% |
| O=C(O)c1cccc(C2CCCN(C(=O)c3c(F)cccc3Cl)C2)c1 (centres undefined) | inactive: 7.93% |
| COC1CCN(CC2CCCCCN2C(=O)c2ccoc2)CC1 (centres undefined) | inactive: -2.58% |
| CCS(=O)(=O)N[C@@H]1CN(C2CCOCC2)C[C@H]1CN(C)C | inactive: -3.93% |
| CN(CC1CCOCC1)C(=O)NCc1ccco1 | inactive: 0.225% |
| COc1ccc(-c2cnc(Nc3ccc(CN4CCN(C)CC4)cc3)c3c2CCO3)cn1 | inactive: 71.5% [at 57.5 µM] |
| O=[S+]1([O-])NCC2(CCN(Cc3ccccn3)CC2)Nc2ccccc21 | inactive: -0.629% |
| CN1CCN([C@H]2[C@@H]3OC[C@@H](O3)[C@@H](NC(=O)Nc3ccccc3)[C@@H]2O)CC1 | inactive: -5.52% [at 57.5 µM] |
| COc1ccc(C(=O)N2CCC(C3CCN(S(C)(=O)=O)CC3)C2)cn1 (centres undefined) | inactive: 10.8% |
| Cc1cnc(-c2ccncc2)n1CCNC(=O)NCc1ccc(F)cc1 | inactive: -0.735% |
| CN(C)C(=O)N1CCC2(CC1)CC(c1cccc(C(F)(F)F)c1)=NO2 | inactive: -0.151% |
| c1ccc(CC2=NOC3(CCCN(Cc4ccns4)C3)C2)cc1 (centres undefined) | inactive: 0.667% [at 57.5 µM] |
| COc1ccccc1CCC(=O)N1CCCC(c2[nH]ccc2C(N)=O)C1 (centres undefined) | inactive: -2.39% |
| Cc1cc(C)cc(N2CCC(NS(=O)(=O)c3cn(C)c(C)n3)C2=O)c1 (centres undefined) | inactive: 3.11% |
| Cc1cc(C(=O)N2CC[C@H](NS(=O)(=O)c3cn(C)cn3)C[C@H]2C(=O)N[C@H](Cc2c[nH]c3ccccc23)C(N)=O)n(C)n1 | inactive: 4.3% |
| Cc1ccccc1CN1C[C@H](O)C[C@H]1c1nc(C2CC2)no1 | inactive: -2.68% [at 57.5 µM] |
| Cc1nc(C)c(C(=O)N2CCC(Cc3nc(C4CC4)n[nH]3)CC2)s1 | inactive: 18.2% |

Two entries from above, as tab-separated lines:
Structure (SMILES)	activity % (negative = inhibition)
CC(C)c1nnc(C2CN(C(=O)c3ccc4ccccc4n3)CC23CCOCC3)o1 (centres undefined)	inactive: 20.3%
O=C(O)c1cccc(C2CCCN(C(=O)c3c(F)cccc3Cl)C2)c1 (centres undefined)	inactive: 7.93%

Remaining list, next part:

| Structure (SMILES) | activity % (negative = inhibition) |
| --- | --- |
| O[C@@H]1CCN(Cc2nc(C3(O)CCN(Cc4ccccc4F)CC3)cs2)C1 | inactive: 7.83% [at 57.5 µM] |
| CC(C)NC(=O)N1CCC(Oc2ccccc2)C1 (centres undefined) | inactive: 7.68% |
| NC1CCc2n[nH]c(=O)n2CC1 (centres undefined) | inactive: 25.4% |
| Cc1ccc(C(C)NC(=O)CN2C(=O)C3(CCNCC3)Nc3ccccc32)cc1 (centres undefined) | inactive: 0.0058% |
| O=C(Nc1ccnn1C1CCN(Cc2ccc(-c3ccccc3)cc2)CC1)C1CC1 | inactive: 3.38% |
| FC(F)(F)c1cccc(-c2nccn3c(C4CN(Cc5ccc6cn[nH]c6c5)C4)ncc23)c1 | inactive: 33.2% |
| CCCNc1cc(N2CCC(CCC(=O)NCCN3CCCCCC3)CC2)ncn1 | inactive: 1.19% |
| COCCOCC(=O)N1CCCN(Cc2ccncc2)C(c2ccccc2)CC(=O)NCC1 (centres undefined) | inactive: 0.853% |
| COc1ccc(C(C)NC(=O)c2cc3n(n2)CC(c2ccc(Cl)cc2)OC3)cc1OC (centres undefined) | inactive: 15.8% |
| O=C(NCc1ccco1)C1CC(c2ccccc2)CN(C(=O)Nc2ccc(Cl)cc2)C1 (centres undefined) | inactive: 1.23% |
| CCOC(=O)C1=CN(CC(=O)Nc2ccccc2C(F)(F)F)S(=O)(=O)N=C1C | inactive: 7.85% |
| CN1CCC2(CCC1=O)CN(C(=O)c1ccc(Cn3cccn3)o1)CCN2C (centres undefined) | inactive: 14.8% |
| CC1(c2noc(-c3cccnc3)n2)CCN(C(=O)CCC(=O)n2ncc3c(Cl)cccc32)CC1 | inactive: -2.35% |
| Cc1noc(-c2ccco2)c1C(=O)NC(C)c1ccccc1 (centres undefined) | inactive: 49.3% |
| CCn1cc(S(=O)(=O)N2C[C@@H](Oc3ccccc3)C[C@H]2C(=O)N2CCCC2)cn1 | inactive: 19.8% |
| Cc1cc(C(=O)N2C[C@@H](CN3CCCCCC3)[C@@H](CO)C2)nc(C)n1 | inactive: 4.96% |
| O=[S+]([O-])(c1ccccc1)N1CC2(CCCCN2Cc2cccnc2)Cc2ccccc21 (centres undefined) | inactive: 6.86% |
| Cc1ccccc1-n1cc(CNC(=O)C(c2cccc(F)c2)N(C)C)cn1 (centres undefined) | inactive: -0.586% |
| CN(CC1CCOC1)S(=O)(=O)c1cccs1 (centres undefined) | inactive: 0.158% |
| COCCOc1cc(C)c2c(c1C)C[C@H](C(C)C(=O)NCc1cccs1)CC2 (some centres undefined) | inactive: -0.141% [at 57.5 µM] |
| O=C(N[C@@H]1CCOC[C@H]1OCc1cscn1)c1ccccc1-n1cccn1 | inactive: -1.09% |

| Structure (SMILES) | activity % (negative = inhibition) |
| --- | --- |
| O=C(c1n[nH]c2c1CCCC2)N1CCCC2(C1)Nc1cccnc1NC2=NC1CCCC1 (centres undefined) | inactive: 12.3% |
| CNC(=O)c1cc(C)nc2onc(C3CCCN3C(=O)C(C)(C)C)c12 (centres undefined) | inactive: -1.19% |
| Cc1ccc(C(=O)N2CCC(C(=O)N3CCC(N4CCCC4=O)CC3)CC2)cc1 | inactive: -1.35% |
| CCc1ccc(S(=O)(=O)N2[C@@H]3CC[C@H]2CC(NC(=O)c2ccc(F)cc2)C3)cc1 (some centres undefined) | inactive: 0.104% |
| Cn1nc(CN2CCOCC2)c2c1CCN(S(=O)(=O)c1cccnc1)C2 | inactive: -1.1% |
| COc1ccc(CN2CCNC(=O)C2CC(=O)NCc2ccncc2)cc1OC (centres undefined) | inactive: 11.3% |
| CC(=O)N1CCN(Cc2snnc2C(C)C)CC(O)C1 (centres undefined) | inactive: 9.42% |
| COc1ccc(C(=O)N[C@H](C)c2c(-c3ccc(F)cc3)noc2C(=O)O)cc1 | inactive: 10.9% [at 57.5 µM] |
| Cc1ccc(OCc2nc(C3CCN(S(=O)(=O)Cc4ccccc4F)C3)no2)cc1 (centres undefined) | inactive: -4.14% |
| CCCn1cc(C(=O)N2C[C@@H](N(C)C)[C@H](c3ccc(C)cc3)C2)c(C)n1 | inactive: 5.42% |
| c1cnc(N2CCOCC2)c(OC2CCNC2)n1 (centres undefined) | inactive: 2.33% |
| CC(C)Cc1cc(C(=O)N2CCc3[nH]nc(-c4ccccc4)c3C2)nc(=O)[nH]1 | inactive: 34.9% |
| C=CCN(C)C(=O)[C@@H](C)C1CC[C@@]2(C)Cc3sc(CSc4ccccc4)nc3[C@@H](C)[C@@H]2[C@H]1O (some centres undefined) | inactive: 1.83% |
| CN1C[C@@H](NC(=O)NC2CCCCC2)C[C@H]1c1nc(-c2cnccn2)no1 | inactive: -2.36% [at 57.5 µM] |
| COc1ccc(NC(=O)c2nc3sccn3c2-c2cccc(OC)c2)cc1 | inactive: 27.7% |
| Cc1noc(-c2ccccc2OC2CCNC2)n1 (centres undefined) | inactive: 4.04% |
| CN1CCOC[C@H]2CCN(C(=O)c3cccs3)C[C@H]21 | inactive: 8.25% |
| CNC(=O)N1CCC(C2CCN(C(=O)Cc3c(F)cccc3Cl)C2)CC1 (centres undefined) | inactive: -6.12% |
| COc1ccc(CNC(=O)[C@@H]2Cc3nc[nH]c3CN2C(=O)NC(C)C)cc1 | inactive: 4.18% [at 57.5 µM] |
| O=C(Nc1cccc(F)c1)N1Cc2[nH]cnc2C[C@H]1c1nc(-c2ccncc2)no1 | inactive: -10% [at 57.5 µM] |
| CN1CCC(OC2CCN(C(=O)COc3ccc(Cl)cc3)CC2)CC1 | inactive: -0.0934% |

A section from the list above:

| Structure (SMILES) | activity % (negative = inhibition) |
| --- | --- |
| CN1CCOC[C@H]2CCN(C(=O)c3cccs3)C[C@H]21 | inactive: 8.25% |
| CNC(=O)N1CCC(C2CCN(C(=O)Cc3c(F)cccc3Cl)C2)CC1 (centres undefined) | inactive: -6.12% |
| COc1ccc(CNC(=O)[C@@H]2Cc3nc[nH]c3CN2C(=O)NC(C)C)cc1 | inactive: 4.18% [at 57.5 µM] |

Going on with the list.

| Structure (SMILES) | activity % (negative = inhibition) |
| --- | --- |
| COc1cccc(CC(=O)N2CCCC3(C2)NC(=O)N(Cc2cccc(Cl)c2)C3=O)c1 (centres undefined) | inactive: 2.89% |
| CCn1c(CC2CCN(Cc3ccccc3C#N)CC2)nn(C)c1=O | inactive: -0.151% |
| Cc1cc(Cn2cc3c4c(cccc42)[C@H](CC(C)C)N[C@H](C(=O)NC2CCCC2)C3)no1 | inactive: 9.91% [at 57.5 µM] |
| COCc1nnc2n1CCC(NC(=O)C1(c3ccc(OC)cc3)CC1)CC2 (centres undefined) | inactive: -1.84% |
| NC(=O)[C@@H](Cc1ccccc1)NC(=O)[C@@H]1C[C@@H](NS(=O)(=O)c2cccs2)CCN1C(=O)CSCC(=O)O | inactive: 0.756% |
| CC(C)C1CN(C(=O)CNC(=O)N(C)C)CCCN1Cc1ccc(F)cc1 (centres undefined) | inactive: 0.0087% |
| CN1CCCCC(CC(=O)NCc2cc(F)ccc2F)C1=O (centres undefined) | inactive: 26.1% |
| C=CCNC(=O)C[C@@H]1CCN(C(=O)c2cccnc2)C[C@@H]1CC | inactive: 41.7% [at 57.5 µM] |
| Cc1ccsc1C(=O)N1CCc2nnc([C@@H]3C[C@@H](O)CN3C(C)C)n2CC1 | inactive: 0.912% |
| CCc1nnc(CN2CCC(C(=O)Nc3cccc(-c4ccco4)c3)CC2)o1 | inactive: 9.16% |
| O=C(C(=O)N1CCc2[nH]nc(-c3ccccc3F)c2C1)c1ccco1 | inactive: 15% |
| Cn1nc(-c2nc(C3CCOC3)no2)cc1-c1ccccc1 (centres undefined) | inactive: -2.22% |
| O[C@@H]1C[C@@H](c2nc(-c3ccccn3)no2)N(Cc2cc3ccccc3o2)C1 | inactive: 0.714% [at 57.5 µM] |
| Cc1cc(=O)n(CC(=O)N2CCCC(C)(c3ccccc3)C2)nc1C (centres undefined) | inactive: 5.67% |
| CN(C)Cc1cc(CC2(NCc3cccc4c3OCO4)COC2)no1 | inactive: 0.728% [at 57.5 µM] |
| O=c1cc(CN2CCCC(c3nccn3Cc3ccccc3)C2)[nH]c(=O)[nH]1 (centres undefined) | inactive: 185% |
| COCCn1cnnc1C(C)NC(=O)CCc1nc(-c2ccccc2OC)no1 (centres undefined) | inactive: 12.6% |
| O=C(c1ccccc1F)N1CCn2ncc(C(=O)N3CCOCC3)c2C1 | inactive: -13.7% |
| CS(=O)(=O)c1ccc(OC[C@H]2C[C@@H](NC(=O)c3ccccc3)[C@H](O)[C@@H]2O)cc1 | inactive: 17.7% [at 57.5 µM] |
| O=C(NCCN1CCCCC1)C1CN(S(=O)(=O)c2cccnc2)CC12CCCCC2 (centres undefined) | inactive: 10.8% |
| O=C(CCNc1c(-c2cccc(F)c2)nc2cnccn12)NCc1ccc(Cl)cc1 | inactive: 0.57% |
